Results are given in words; binding and its absence hold for the method and conditions named. Binding seen in cells or lysates may run through a third protein. Some results given as binding are weak or reduced against the parent protein; the word gives no strength.

Amino acid sequences for entries named in this document (tags omitted). A change or cut given only in a name is not applied to a line headed by its entry. Chains listed by the source or under a name are the forms on record and can include a tag or linker. Residues count along the entry.
UniProt Q86WJ1: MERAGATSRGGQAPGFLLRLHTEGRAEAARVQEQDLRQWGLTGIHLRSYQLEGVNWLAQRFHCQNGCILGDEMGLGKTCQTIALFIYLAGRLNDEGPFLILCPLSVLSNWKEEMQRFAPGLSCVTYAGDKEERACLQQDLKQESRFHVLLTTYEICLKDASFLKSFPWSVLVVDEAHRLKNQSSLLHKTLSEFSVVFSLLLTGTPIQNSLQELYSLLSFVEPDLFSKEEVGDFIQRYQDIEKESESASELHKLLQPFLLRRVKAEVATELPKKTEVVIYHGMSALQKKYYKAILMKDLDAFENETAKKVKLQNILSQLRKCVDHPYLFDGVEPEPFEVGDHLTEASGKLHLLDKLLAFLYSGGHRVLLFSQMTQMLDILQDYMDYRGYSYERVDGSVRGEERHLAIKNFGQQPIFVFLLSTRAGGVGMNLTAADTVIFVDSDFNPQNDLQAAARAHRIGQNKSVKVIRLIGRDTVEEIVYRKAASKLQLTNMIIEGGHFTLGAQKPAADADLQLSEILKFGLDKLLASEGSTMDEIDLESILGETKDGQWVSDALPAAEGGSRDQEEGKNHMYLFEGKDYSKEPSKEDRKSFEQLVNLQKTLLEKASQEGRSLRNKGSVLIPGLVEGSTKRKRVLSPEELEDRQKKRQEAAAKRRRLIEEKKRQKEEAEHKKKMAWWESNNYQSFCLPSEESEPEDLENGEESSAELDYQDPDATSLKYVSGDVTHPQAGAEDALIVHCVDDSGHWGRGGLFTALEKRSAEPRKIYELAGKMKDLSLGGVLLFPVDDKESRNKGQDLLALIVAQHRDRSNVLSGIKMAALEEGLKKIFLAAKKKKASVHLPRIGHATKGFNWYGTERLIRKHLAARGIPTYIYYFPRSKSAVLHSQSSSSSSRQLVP
FLAG-tagged macro domain of ALC1 (FLAG-macro), wild type: residues 704-897 of Q86WJ1

Data on 4 substances can be found in paper PMC5745148, “Mechanistic Insights into Autoinhibition of the Oncogenic Chromatin Remodeler ALC1” (Molecular Cell, 2017).

This assay has as its target FLAG-tagged macro domain of ALC1 (FLAG-macro), wild type (human) (UniProt Q86WJ1). Description: co-IP; U2OS cells co-transfected, grown in the presence of olaparib; lysate on anti-FLAG M2 affinity gel overnight at 4°C; immunoblot with anti-FLAG and anti-GFP.
“YFP-tagged intact ALC1 (YFP-ALC1) R857E (from UniProt Q86WJ1 1-897)”: the binding entry was “binds”.
For “YFP-tagged intact ALC1 (YFP-ALC1) R860W (from UniProt Q86WJ1 1-897)” the value was “binds”.
For “YFP-tagged intact ALC1 (YFP-ALC1), wild type (from UniProt Q86WJ1 1-897)” the value was “no binding”; for “YFP-tagged intact ALC1 (YFP-ALC1) R857Q (from UniProt Q86WJ1 1-897)”, “binds”.
